No constants are given. Whether binding was seen depends on the method and setting. In cells and extracts the contact can be indirect. Some entries that bind do so weakly or less than the wild type.
Target: T1, Human SRGN, overexpression construct (pLVX-puro) (human) (UniProt P10124)
T1 sequence: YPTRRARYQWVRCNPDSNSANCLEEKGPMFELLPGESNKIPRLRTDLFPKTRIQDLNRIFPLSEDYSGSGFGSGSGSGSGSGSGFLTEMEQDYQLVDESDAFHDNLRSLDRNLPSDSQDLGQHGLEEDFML
Assay: co-IP; reciprocal co-IP of SRGN with CD44s or CD44v3-v10 (Supplementary Fig. S4B-E); cells and tags not shown

Chains of the proteins cited; added tags and fusions are not shown. Lines headed by an entry give the natural chain unless they say otherwise; changes in a name come on top. A line that says so, or that is headed by a name, gives the form on record, which may keep a tag or linker.
CD44 standard isoform (CD44s), human, overexpression construct (pCDNA3.1) (P16070-12, form named): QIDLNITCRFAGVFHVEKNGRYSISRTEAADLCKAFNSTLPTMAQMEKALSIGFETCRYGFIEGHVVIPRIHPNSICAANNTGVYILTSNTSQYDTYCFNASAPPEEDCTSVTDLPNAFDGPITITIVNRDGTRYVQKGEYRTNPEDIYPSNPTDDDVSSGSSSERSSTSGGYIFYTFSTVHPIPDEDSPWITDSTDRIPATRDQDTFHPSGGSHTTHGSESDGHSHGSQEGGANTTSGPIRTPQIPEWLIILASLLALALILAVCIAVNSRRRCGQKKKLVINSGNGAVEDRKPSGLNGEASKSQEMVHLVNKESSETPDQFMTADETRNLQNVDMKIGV
CD44 variant isoform (CD44v3-v10), human, overexpression construct (pCDNA3.1) (P16070-4, form named): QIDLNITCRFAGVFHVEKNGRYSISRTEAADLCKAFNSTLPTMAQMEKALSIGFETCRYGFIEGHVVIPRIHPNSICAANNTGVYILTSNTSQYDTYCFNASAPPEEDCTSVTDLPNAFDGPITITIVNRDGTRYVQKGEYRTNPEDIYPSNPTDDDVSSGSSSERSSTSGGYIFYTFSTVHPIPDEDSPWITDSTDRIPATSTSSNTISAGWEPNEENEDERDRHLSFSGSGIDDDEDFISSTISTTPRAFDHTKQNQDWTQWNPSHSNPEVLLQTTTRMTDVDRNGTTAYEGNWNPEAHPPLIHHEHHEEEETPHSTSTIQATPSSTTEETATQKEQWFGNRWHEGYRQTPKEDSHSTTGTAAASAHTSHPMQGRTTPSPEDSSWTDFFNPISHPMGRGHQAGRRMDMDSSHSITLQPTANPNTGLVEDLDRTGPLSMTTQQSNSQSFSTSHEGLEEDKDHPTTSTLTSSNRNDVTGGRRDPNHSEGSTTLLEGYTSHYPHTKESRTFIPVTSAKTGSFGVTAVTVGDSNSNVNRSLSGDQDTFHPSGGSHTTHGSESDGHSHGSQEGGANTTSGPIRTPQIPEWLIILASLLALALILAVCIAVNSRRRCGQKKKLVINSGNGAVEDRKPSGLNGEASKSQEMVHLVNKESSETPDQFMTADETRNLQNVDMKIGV

Substance	binding
CD44 standard isoform (CD44s), human, overexpression construct (pCDNA3.1) (from UniProt P16070-12 21-361) (receptor)	binds
CD44 variant isoform (CD44v3-v10), human, overexpression construct (pCDNA3.1) (from UniProt P16070-4 21-699) (receptor)	binds
